The test system of the test is P388 leukemia ip, CD2F1 mice, survival T/C. Description: NCI In Vivo Anticancer Drug Screen. Data for tumor model P388 Leukemia (intraperitoneal) in CD2F1 (CDF1) mice. Particulars: T/C endpoint: median survival time, higher T/C = longer survival.
The mark [1] stands for this setting: dose: 200.0 mg/kg/injection, schedule: Q01DX005 (ip), vehicle: Klucel (hydroxypropylcellulose) (HPC).
The mark [2] stands for this setting: dose: 200.0 mg/kg/injection, schedule: Q01DX009 (ip), vehicle: Klucel (hydroxypropylcellulose) (HPC).
The mark [3] stands for this setting: dose: 25.0 mg/kg/injection, schedule: Q01DX009 (ip), vehicle: water.
Setting [4] is: dose: 100.0 mg/kg/injection, schedule: Q01DX005 (ip), vehicle: saline with Tween-80.
The mark [5] stands for this setting: dose: 200.0 mg/kg/injection, schedule: Q01DX005 (ip), vehicle: saline with Tween-80.
Setting [6] is: dose: 50.0 mg/kg/injection, schedule: Q01DX009 (ip), vehicle: saline with Tween-80.
The mark [7] stands for this setting: dose: 50.0 mg/kg/injection, schedule: Q01DX005 (ip), vehicle: saline with Tween-80.
Where [8] appears, read: dose: 400.0 mg/kg/injection, schedule: Q01DX009 (ip), vehicle: saline with Tween-80.
The mark [9] stands for this setting: dose: 100.0 mg/kg/injection, schedule: Q01DX005 (ip), vehicle: distilled water + Tween-80.

Structures are written as SMILES. The list is a part of this screen's results and no random one: it is rich in T/C values a quarter to a half above the control, in often repeated tests (any T/C) and in doses without a T/C. Further doses and runs are listed elsewhere. T/C gives the treated animals as a percentage of the vehicle group. Some doses have a count of surviving animals in place of a T/C: the source files T/C as zero there, which appears to mark a toxic dose or a test without result, not a measured value. Some survivor counts are full or nearly so, which does not show that the dose was tolerated: survival well below the control is almost never listed, so the zero probably covers shortened survival too. Counts of survivors are from the toxicity check (mostly the fifth day) where no day follows; animals may have died later. Schedule codes are those of the source, read here as Q, the interval in days (D) or hours (H), X, the number of doses. Some entries were tested several times; the results are listed from low to high. Where survival is the endpoint, the PubChem record calls one and a half times the control and up active, and a quarter to a half above the control has no call in these data; cut-offs in other NCI protocols can differ. Some T/C values carry the count of animals alive at the toxicity check (mostly the fifth day); where none is given, no animal had died by that day.

As to `Cc1cc[c]([Sn]([Cl])([O][Sn]([Cl])([c]2ccc(C)cc2)[c]2ccc(C)cc2)[c]2ccc(C)cc2)cc1`, the T/C (dose: 12.5 mg/kg/injection, schedule: Q01DX005 (ip), vehicle: saline) was 132 and 141 % of control. In addition, the survivor count is, setting by setting: (dose: 25.0 mg/kg/injection, schedule: Q01DX005 (ip), vehicle: saline) 1 of 6; (dose: 50.0 mg/kg/injection, schedule: Q01DX005 (ip), vehicle: Klucel (hydroxypropylcellulose) (HPC)) 4 of 6; (dose: 50.0 mg/kg/injection, schedule: Q01DX005 (ip), vehicle: saline) 0 of 6; (dose: 100.0 mg/kg/injection, schedule: Q01DX005 (ip), vehicle: Klucel (hydroxypropylcellulose) (HPC)) 0 of 6; under setting [1], 0 of 6.
Take `OCCN1CCN(c2c3ccccc3nc3ccccc23)CC1`: the survivor count runs as follows: (dose: 100.0 mg/kg/injection, schedule: Q04DX003 (ip), vehicle: Klucel (hydroxypropylcellulose) (HPC)) 3 of 6; (dose: 100.0 mg/kg/injection, schedule: Q04DX003 (ip), vehicle: saline) 4 of 6; (dose: 200.0 mg/kg/injection, schedule: Q04DX003 (ip), vehicle: Klucel (hydroxypropylcellulose) (HPC)) 1 of 6; (dose: 400.0 mg/kg/injection, schedule: Q04DX003 (ip), vehicle: Klucel (hydroxypropylcellulose) (HPC)) 0 of 6.
Consider `O=C(Nc1ccc(F)cc1F)Oc1cccc2cccnc12`, for which, under setting [2], the T/C was 129 % of control.
As for `O=C1C2CC=CCC2C(=O)N1CC[P+](c1ccccc1)(c1ccccc1)c1ccccc1` (stereo unspecified), the T/C (dose: 6.25 mg/kg/injection, schedule: Q01DX009 (ip), vehicle: water) is 125 % of control. The survivor count reads like this: under setting [3], 6 of 6; (dose: 50.0 mg/kg/injection, schedule: Q01DX009 (ip), vehicle: water) 5 of 6.
Turning to `Cc1ccc(S(=O)(=O)N/N=C/c2ccc(Cl)cc2)cc1`, the T/C under setting [4] is 107, 110, 112 [4 of 5 alive], 115 % of control. In addition, the survivor count reads like this: under setting [5], 5 of 5; (dose: 400.0 mg/kg/injection, schedule: Q01DX005 (ip), vehicle: saline with Tween-80) 3 of 5 and 4 of 5.
Consider `Cc1nc(C)c2c(C)[nH]c(-c3ccccc3)c2n1`, for which the survivor count runs as follows: (dose: 100.0 mg/kg/injection, schedule: Q04DX002 (ip), vehicle: Klucel (hydroxypropylcellulose) (HPC)) 0 of 6; (dose: 400.0 mg/kg/injection, schedule: Q04DX002 (ip), vehicle: Klucel (hydroxypropylcellulose) (HPC)) 6 of 6.
With `CCOC(=O)c1ccc(NN=NCCOC)cc1`, for the setting “dose: 100.0 mg/kg/injection, schedule: Q01DX009 (ip), vehicle: distilled water + Tween-80”, the T/C is 129 and 138 % of control. In addition, the survivor count (dose: 200.0 mg/kg/injection, schedule: Q01DX009 (ip), vehicle: distilled water + Tween-80) is listed as 6 of 6.
On to `O=[N+]([O-])c1ccc(Sc2ccc(Cl)cc2)c2nonc12`, for which the survivor count is reported as 4 of 6 under setting [6] and 0 of 6 (dose: 100.0 mg/kg/injection, schedule: Q01DX009 (ip), vehicle: saline with Tween-80).
Turning to `CCCCN(CCCC)c1ccc(C(=NC(C)CCCN(CC)CC)c2ccc(N(C)C)cc2)cc1` (stereo unspecified), the survivor count runs as follows: under setting [7], 1 of 5; under setting [4], 0 of 5; under setting [5], 0 of 5.
Turning to `Nc1ncnc2c1c1c(=O)[nH]cnc1n2C1OC(CO)C(O)C1O` (stereo unspecified), under setting [3], the T/C is 133 % of control.
Turning to `CC1=CN2C3=NCCN3C3=[N+](C)CCN3C2C=C1` (stereo unspecified), the survivor count is, setting by setting: (dose: 100.0 mg/kg/injection, schedule: Q01DX005 (ip), vehicle: saline) 0 of 6; (dose: 200.0 mg/kg/injection, schedule: Q01DX005 (ip), vehicle: saline) 0 of 6.
On to `[O-][n+]1nc2ccccc2c2ccccc21`, for which the survivor count was 3 of 6 under setting [2] and 0 of 6 (dose: 400.0 mg/kg/injection, schedule: Q01DX009 (ip), vehicle: Klucel (hydroxypropylcellulose) (HPC)).
In the case of `O=C1/C(=C/c2ccccc2)CSC/C1=C\c1ccccc1`, the survivor count under setting [1] is 6 of 6.
Consider `O=C1OC2C(O1)C1(c3ccccc3)C(=O)C2(c2ccccc2)C(c2ccccc2)=C1c1ccccc1` (stereo unspecified), for which the survivor count is reported as 6 of 6 under setting [6] and 6 of 6 (dose: 200.0 mg/kg/injection, schedule: Q01DX009 (ip), vehicle: saline with Tween-80).
On to `COc1ccc(CCNS(=O)(=O)c2c(C)c(C)c(C)c(C)c2C)cc1OC`, for which the survivor count under setting [1] is on record as 6 of 6.
Turning to `NCCNCC[OH2+].NCCNCC[OH2+].O=[N+]([O-])[O-].[Ni+2]`, the survivor count (dose: 50.0 mg/kg/injection, schedule: Q01DX009 (ip), vehicle: saline) was 6 of 6.
For `CCN(CC)CCNc1ccc(COC(=O)Nc2ccccc2)c2sc3ccccc3c(=O)c12`, the survivor count runs as follows: (dose: 12.5 mg/kg/injection, schedule: Q01DX005 (ip), vehicle: Klucel + Tween-80) 1 of 6; (dose: 25.0 mg/kg/injection, schedule: Q01DX005 (ip), vehicle: Klucel + Tween-80) 0 of 6; (dose: 50.0 mg/kg/injection, schedule: Q01DX005 (ip), vehicle: Klucel + Tween-80) 0 of 6.
Turning to `O=C1CN=C(c2ccccn2)c2cc(Cl)ccc2N1CCO`, the survivor count under setting [8] is reported as 3 of 6.
In the case of `CC12CCC(=O)C=C1CCC1C2CCC2(C)C(OC(=O)C34C=CC(=O)C3C3C=CC4CC3)CCC12` (stereo unspecified), the survivor count was 6 of 6 under setting [9] and 6 of 6 (dose: 200.0 mg/kg/injection, schedule: Q01DX005 (ip), vehicle: distilled water + Tween-80).
For `CCCn1c(C)nc2cc(C)cc(N)c21`, the survivor count reads like this: under setting [4], 0 of 6; under setting [5], 0 of 6.
As for `CC(C)(C)C(CCC(=O)O)CC(=O)O` (stereo unspecified), the survivor count (dose: 400.0 mg/kg/injection, schedule: Q04DX003 (ip), vehicle: saline) is 4 of 6.
As for `CCOC(=O)N1CCN(CCCCCCOc2ccc(C3CCCCC3)cc2)CC1`, under setting [8], the survivor count is 3 of 6.
Turning to `Cc1ccc(CNc2cc(C)ccn2)cc1`, the survivor count (dose: 200.0 mg/kg/injection, schedule: Q01DX009 (ip), vehicle: other) was 3 of 6.
As to `COC(=O)C(C)NC(=O)c1c2nc3c(C(=O)NC(C)C(=O)OC)ccc(C)c3oc-2c(C)c(=O)c1N` (stereo unspecified), the survivor count (dose: 12.5 mg/kg/injection, schedule: Q01DX005 (ip), vehicle: distilled water + Tween-80) is reported as 6 of 6; the survivor count (dose: 25.0 mg/kg/injection, schedule: Q01DX005 (ip), vehicle: saline with Tween-80) is on record as 6 of 6; the survivor count under setting [7] is 6 of 6; the survivor count under setting [9] is reported as 6 of 6.
As to `O=C(Nc1cc(Cl)ccc1Cl)Nc1ccc(Cl)cc1C(=O)c1ccccc1`, the survivor count is given as 6 of 6 (dose: 60.0 mg/kg/injection, schedule: Q01DX005 (ip), vehicle: saline with Tween-80) and 6 of 6 (dose: 120.0 mg/kg/injection, schedule: Q01DX005 (ip), vehicle: saline with Tween-80).
As to `CC1(CO)CSC(Nc2ccc(Cl)c(Cl)c2)=N1` (stereo unspecified), the survivor count (dose: 12.5 mg/kg/injection, schedule: Q01DX009 (ip), vehicle: saline with Tween-80) is 6 of 6.
For `O=C1CCCC2OC12` (stereo unspecified), for the setting “dose: 400.0 mg/kg/injection, schedule: Q04DX002 (ip), vehicle: saline”, the survivor count is given as 0 of 6.
As for `CCC(c1ccc(OC)cc1)C(NCC(=O)NNC(=S)Nc1cccc(C)c1)c1ccc(OC)cc1` (stereo unspecified), the survivor count (dose: 400.0 mg/kg/injection, schedule: Q01DX001 (ip), vehicle: saline with Tween-80) is listed as 1 of 6.

Source of the values: PubChem BioAssay AID330 (DTP/NCI, 2004).
